Drawing on PMC5991658, this text covers binding for four molecules.

B1: SPE-4 (protein, UniProt Q01608 1-465)
chain: MDTLRSISSELVRSSQLRWTLFSVIANMSLTLSIWIGVYNMEVNSELSKTYFLDPSFEQTTGNLLLDGFINGVGTILVLGCVSFIMLAFVLFDFRRIVKAWLTLSCLLILFGVSAQTLHDMFSQVFDQDDNNQYYMTIVLIVVPTVVYGFGGIYAFFSNSSLILHQIFVVTNCSLISVFYLRVFPSKTTWFVLWIVLFWDLFAVLAPMGPLKKVQEKASDYSKCVLNLIMFSANEKRLTAGSNQEETNEGEESTIRRTVKQTIEYYTKREAQDDEFYQKIRQRRAAINPDSVPTEHSPLVEAEPSPIELKEKNSTEELSDDESDTSETSSGSSNLSSSDSSTTVSTSDISTAEECDQKEWDDLVSNSLPNNDKRPATAADALNDGEVLRLGFGDFVFYSLLIGQAAASGCPFAVISAALGILFGLVVTLTVFSTEESTTPALPLPVICGTFCYFSSMFFWEQLYG
B2: SPE-6 (protein, UniProt Q95PZ9 1-379)
chain: MSEQRDSRGMPQAGFIIEHQSSDHKWKVLRNIYSGPFSDVYVVADTVTNEKYAMKCERQEGNSRPVLKLDVMVLMATKGLRGFPNFVAAGRTDVYRYCIMQLVGPDLGRLRRTRPERKFSLPTALQILGQTLRRLEDLHNCGWLCRDVKAPNFCIGVGENESTVYILDFGFARKFVDKEGKIIPPRTAAALMGTFQYCAVSAHSHKDQCARDDLESWFYMGIELLKGPLPWANIDGHKNHKQIGEAKVAIRSEPLRSEFFEGVPKQFNEILTILDQTSYFDRPNYKKLGDLLSQAATEHQVTLKEPLDWQNNERMQQKAIFVGELGESHQASAKLDAKDNANESMDIEFDDMPPKEGISKSLSAEKSCTKNVETARTEK
B3: SPE-8 (protein, UniProt O01798 1-512)
chain: MRSKSSEGDLQPEDTQSREDKETTATYSEDTKPETQKERNAALDNLAKTPIQLVVQPTPLTPAITPCEAPPPPPPPKPSSDNNNSKRLKVKDQLIEVPSDEVGRVENNIDNFPFYHGFMGRNECEAMLSNHGDFLIRMTEIGKRVAYVISIKWKYQNIHVLVKRTKTKKLYWTKKYAFKSICELIAYHKRNHKPIYEGMTLICGLARHGWQLNNEQVTLNKKLGEGQFGEVHKGSLKTSVFAAPVTVAVKTLHQNHLSANEKILFLREANVMLTLSHPNVIKFYGVCTMKEPIMIVMEFCDGKSLEDALLSKEEKVSAEDKILYLFHAACGIDYLHGKQVIHRDIAARNCLLNSKKILKISDFGLSVKGVAIKERKGGCLPVKYMAPETLKKGLYSTASDIYSYGALMYEVYTDGKTPFETCGLRGNELRKAIIGKRISLAVEVELPVFIANIFEQSRQYETEDRISSKQIIQIFKEEVGFHEIETSGILHKLVNSLPRIHNKERKPAAVAV
B4: SPE-27 (protein, UniProt P54218 18-131)
chain: TKTENNFDINDVENKACQYGCGFENVRRTSFRKTYDILYTCSECSTLFDLCIKYRTCQDGCVPEMPVLPYDQAKDVSARIRPPMNPCLDLVTACNYESMDSYEILRSENPFLYI

These are yes or no findings as the source states them, for the method shown. Some results given as binding are weak or reduced against the parent protein; the word gives no strength.

The target in the assay is T1, ZIPT-7.1 lacking the last 21 C-terminal amino acids (split-ubiquitin bait) (C. elegans) (UniProt Q9XUC4).
T1 sequence: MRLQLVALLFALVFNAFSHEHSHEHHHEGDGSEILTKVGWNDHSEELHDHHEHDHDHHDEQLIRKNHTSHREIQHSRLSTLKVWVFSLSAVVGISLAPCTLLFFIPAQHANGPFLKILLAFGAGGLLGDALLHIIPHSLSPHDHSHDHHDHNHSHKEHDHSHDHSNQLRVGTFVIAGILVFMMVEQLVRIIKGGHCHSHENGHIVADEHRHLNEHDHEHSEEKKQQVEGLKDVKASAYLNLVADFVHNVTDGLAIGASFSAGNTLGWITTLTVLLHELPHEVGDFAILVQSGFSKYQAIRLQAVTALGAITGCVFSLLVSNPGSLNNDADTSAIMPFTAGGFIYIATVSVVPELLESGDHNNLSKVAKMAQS
Briefly: two-hybrid; split-ubiquitin yeast two-hybrid (DUALmembrane kit, Dualsystems Biotech) in yeast NMY51; ZIPT-7.1 on the bait plasmid pBT3-STE, other proteins on prey plasmids; growth on synthetic medium lacking Trp, Leu, His and Ade at three plating dilutions.
As for B1, the binding result is reported as “binds”.

With B2, the binding entry was “no binding”.

For B3, the binding result is “no binding”.

With B4, the binding result is “no binding”.
